Data as given in PubChem BioAssay AID1259254 (NCATS, 2017)
Shown is a random part of about 59,000 deposited reagents. Of all reagents, about 1,550 (2.6%) were called active. 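G2 share is only a proxy for re-replication; each gene was hit by three separate siRNAs, and active genes were retested.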 Unmarked entries are inactive. Reagents against one gene are numbered here. Not all columns of the deposit are shown. Not stated in the record: the amount of reagent.

- Purpose: 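Gene knock-downs that lead to re-replication, shown by excess G2 DNA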 (primary screen)
- Cells: human HCT116 colorectal cancer cells
- Knock-down reagent: single siRNA against human genes
- Timing: 3 days
- Measurement: 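Nuclei stained with Hoechst and imaged; cell-cycle phase assigned by DNA content; G2 share scaled per plate, non-targeting siRNA 0%, GMNN siRNA 100%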
- Reading the numbers: G2 robust z-score and G2 cells, % of GMNN control: higher = more G2 cells, more excess DNA replication
- Active means: 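An siRNA counts as active if its G2 robust z-score lies at least 5 MADs above the screen median; here such calls match roughly 38% of GMNN control or more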

The first 2 records as a preview:
no.	target	reagent	G2 robust z-score	G2 cells, % of GMNN control
1	CINP	1	-1.4	-6.88
2	CINP	2	0.671	7.69

Main list, from the start:
no.	target	reagent	G2 robust z-score	G2 cells, % of GMNN control
1	CINP	1	-1.4	-6.88
2	CINP	2	0.671	7.69
3	CINP	3	0.301	5.08
4	UBOX5	1	0.374	5.6
5	UBOX5	2	-0.26	1.14
6	UBOX5	3	-0.737	-2.22
7	ZNF570	1	0.844	8.9
8	ZNF570	2	0.31	5.15
9	ZNF570	3	-0.681	-1.82
10	CAPN6	1	-1.22	-5.62
11	CAPN6	2	-0.895	-3.33
12	CAPN6	3	-0.96	-3.79
13	ANTXRL	1	-0.452	-0.216
14	ANTXRL	2	-0.597	-1.23
15	ANTXRL	3	0.253	4.75
16	TENT5B	1	1.56	14
17	TENT5B	2	-0.835	-2.91
18	TENT5B	3	-0.213	1.47
19	SYT11	1	-0.903	-3.39
20	SYT11	2	-0.594	-1.21
21	SYT11	3	-0.844	-2.97
22	OR6C6	1	1.61	14.3
23	OR6C6	2	0.0703	3.46
24	OR6C6	3	-0.554	-0.929
25	MPLKIP	1	-0.194	1.6
26	MPLKIP	2	-0.0815	2.39
27	MPLKIP	3	0.853	8.97
28	ST7L	1	-0.539	-0.822
29	ST7L	2	4.28	33.1
30	ST7L	3	-0.353	0.485
31	SNRPC	1	-0.363	0.413
32	SNRPC	2	0.343	5.38
33	SNRPC	3	1.85	16
34	INSL6	1	0.711	7.97
35	INSL6	2	-1.2	-5.51
36	INSL6	3	-0.549	-0.896
37	THOC5	1	-0.635	-1.5
38	THOC5	2	0.00507	3
39	THOC5	3	3.22	25.6
40	QSOX2	1	0.514	6.58
41	QSOX2	2	-0.478	-0.397
42	QSOX2	3	1.48	13.4
43	SUV39H1	1	-0.661	-1.68
44	SUV39H1	2	1.8	15.6
45	SUV39H1	3	1.21	11.5
46	KLF13	1	-0.142	1.97
47	KLF13	2	-1.21	-5.56
48	KLF13	3	-0.158	1.86
